Drawing on the supplement of paper PMC12819154, “High-throughput peptide-centric local stability assay extends protein–ligand identification to membrane proteins, tissues and bacteria” (Nature Structural & Molecular Biology, 2025), this text covers log2 fold change for 37 targets.

Amino acid sequences for entries named in this document (tags omitted). A change or cut given only in a name is not applied to a line headed by its entry.
UniProt P48723: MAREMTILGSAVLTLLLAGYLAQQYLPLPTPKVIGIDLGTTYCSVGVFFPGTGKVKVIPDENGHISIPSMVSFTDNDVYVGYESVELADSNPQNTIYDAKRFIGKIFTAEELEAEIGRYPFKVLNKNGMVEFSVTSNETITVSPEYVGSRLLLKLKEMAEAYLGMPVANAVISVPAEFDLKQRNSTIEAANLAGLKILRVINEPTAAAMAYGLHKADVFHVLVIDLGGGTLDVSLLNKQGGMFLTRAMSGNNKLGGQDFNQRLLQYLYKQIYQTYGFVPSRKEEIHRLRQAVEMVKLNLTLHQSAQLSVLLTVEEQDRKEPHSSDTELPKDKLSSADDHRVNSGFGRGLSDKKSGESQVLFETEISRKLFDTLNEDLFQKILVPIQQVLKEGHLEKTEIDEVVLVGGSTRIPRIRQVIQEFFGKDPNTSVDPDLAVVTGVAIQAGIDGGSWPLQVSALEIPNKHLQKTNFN
UniProt P47224: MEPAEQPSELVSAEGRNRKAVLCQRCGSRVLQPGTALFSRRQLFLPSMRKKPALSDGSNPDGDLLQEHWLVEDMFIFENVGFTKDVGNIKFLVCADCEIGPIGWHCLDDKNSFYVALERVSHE
UniProt P49795: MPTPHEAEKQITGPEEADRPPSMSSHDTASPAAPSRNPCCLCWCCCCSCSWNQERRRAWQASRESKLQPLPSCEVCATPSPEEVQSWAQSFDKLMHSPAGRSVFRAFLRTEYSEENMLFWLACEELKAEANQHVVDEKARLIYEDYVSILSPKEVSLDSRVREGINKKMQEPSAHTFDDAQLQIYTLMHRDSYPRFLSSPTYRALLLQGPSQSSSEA
UniProt P50747: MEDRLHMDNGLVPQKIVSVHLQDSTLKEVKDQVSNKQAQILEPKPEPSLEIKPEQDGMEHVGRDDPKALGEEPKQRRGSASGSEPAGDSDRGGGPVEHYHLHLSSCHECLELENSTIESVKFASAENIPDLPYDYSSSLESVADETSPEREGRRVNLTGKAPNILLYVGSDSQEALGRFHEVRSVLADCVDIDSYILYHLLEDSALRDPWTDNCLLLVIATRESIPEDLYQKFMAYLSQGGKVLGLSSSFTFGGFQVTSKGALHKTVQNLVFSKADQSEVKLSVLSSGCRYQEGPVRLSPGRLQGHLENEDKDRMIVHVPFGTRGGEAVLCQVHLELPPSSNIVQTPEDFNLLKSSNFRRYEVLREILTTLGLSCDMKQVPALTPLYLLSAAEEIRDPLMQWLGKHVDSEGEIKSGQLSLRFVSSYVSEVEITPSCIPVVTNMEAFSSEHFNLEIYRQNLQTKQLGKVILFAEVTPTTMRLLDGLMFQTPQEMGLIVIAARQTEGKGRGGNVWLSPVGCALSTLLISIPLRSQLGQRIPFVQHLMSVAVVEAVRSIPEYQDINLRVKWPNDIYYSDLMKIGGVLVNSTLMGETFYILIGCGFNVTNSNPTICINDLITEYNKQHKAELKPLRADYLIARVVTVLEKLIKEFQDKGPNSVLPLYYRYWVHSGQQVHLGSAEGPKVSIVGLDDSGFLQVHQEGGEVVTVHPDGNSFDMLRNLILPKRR
UniProt P50453: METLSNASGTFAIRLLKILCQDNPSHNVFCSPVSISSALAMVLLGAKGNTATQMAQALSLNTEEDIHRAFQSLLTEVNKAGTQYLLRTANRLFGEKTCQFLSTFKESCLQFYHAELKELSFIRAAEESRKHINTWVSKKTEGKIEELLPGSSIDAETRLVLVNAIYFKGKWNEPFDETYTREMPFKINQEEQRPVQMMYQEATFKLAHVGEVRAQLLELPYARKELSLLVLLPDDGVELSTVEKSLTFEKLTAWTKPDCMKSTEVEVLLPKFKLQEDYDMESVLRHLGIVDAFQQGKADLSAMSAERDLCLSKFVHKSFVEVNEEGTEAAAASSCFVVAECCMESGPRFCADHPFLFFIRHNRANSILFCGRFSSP
UniProt P46109: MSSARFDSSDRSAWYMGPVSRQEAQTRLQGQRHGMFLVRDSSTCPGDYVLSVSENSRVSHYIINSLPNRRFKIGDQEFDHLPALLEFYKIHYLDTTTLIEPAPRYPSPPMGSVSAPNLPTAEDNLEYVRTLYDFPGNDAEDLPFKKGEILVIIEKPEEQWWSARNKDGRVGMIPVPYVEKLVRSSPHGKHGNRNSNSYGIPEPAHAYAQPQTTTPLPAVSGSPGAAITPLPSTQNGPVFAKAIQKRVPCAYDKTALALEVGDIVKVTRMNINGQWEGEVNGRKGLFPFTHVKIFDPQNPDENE
UniProt P54578: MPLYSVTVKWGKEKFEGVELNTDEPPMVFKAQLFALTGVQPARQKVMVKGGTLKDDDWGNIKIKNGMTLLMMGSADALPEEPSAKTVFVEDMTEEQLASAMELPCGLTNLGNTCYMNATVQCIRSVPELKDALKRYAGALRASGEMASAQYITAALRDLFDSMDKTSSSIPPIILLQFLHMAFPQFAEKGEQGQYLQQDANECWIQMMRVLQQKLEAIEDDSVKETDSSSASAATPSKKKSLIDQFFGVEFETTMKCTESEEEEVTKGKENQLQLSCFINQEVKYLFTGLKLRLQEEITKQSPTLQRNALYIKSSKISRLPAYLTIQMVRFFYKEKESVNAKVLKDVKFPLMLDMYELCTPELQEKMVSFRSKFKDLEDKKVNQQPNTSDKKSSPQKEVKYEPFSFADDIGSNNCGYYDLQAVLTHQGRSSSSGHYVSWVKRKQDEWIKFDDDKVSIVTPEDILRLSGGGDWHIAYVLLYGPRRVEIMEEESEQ
UniProt P49792, whole entry: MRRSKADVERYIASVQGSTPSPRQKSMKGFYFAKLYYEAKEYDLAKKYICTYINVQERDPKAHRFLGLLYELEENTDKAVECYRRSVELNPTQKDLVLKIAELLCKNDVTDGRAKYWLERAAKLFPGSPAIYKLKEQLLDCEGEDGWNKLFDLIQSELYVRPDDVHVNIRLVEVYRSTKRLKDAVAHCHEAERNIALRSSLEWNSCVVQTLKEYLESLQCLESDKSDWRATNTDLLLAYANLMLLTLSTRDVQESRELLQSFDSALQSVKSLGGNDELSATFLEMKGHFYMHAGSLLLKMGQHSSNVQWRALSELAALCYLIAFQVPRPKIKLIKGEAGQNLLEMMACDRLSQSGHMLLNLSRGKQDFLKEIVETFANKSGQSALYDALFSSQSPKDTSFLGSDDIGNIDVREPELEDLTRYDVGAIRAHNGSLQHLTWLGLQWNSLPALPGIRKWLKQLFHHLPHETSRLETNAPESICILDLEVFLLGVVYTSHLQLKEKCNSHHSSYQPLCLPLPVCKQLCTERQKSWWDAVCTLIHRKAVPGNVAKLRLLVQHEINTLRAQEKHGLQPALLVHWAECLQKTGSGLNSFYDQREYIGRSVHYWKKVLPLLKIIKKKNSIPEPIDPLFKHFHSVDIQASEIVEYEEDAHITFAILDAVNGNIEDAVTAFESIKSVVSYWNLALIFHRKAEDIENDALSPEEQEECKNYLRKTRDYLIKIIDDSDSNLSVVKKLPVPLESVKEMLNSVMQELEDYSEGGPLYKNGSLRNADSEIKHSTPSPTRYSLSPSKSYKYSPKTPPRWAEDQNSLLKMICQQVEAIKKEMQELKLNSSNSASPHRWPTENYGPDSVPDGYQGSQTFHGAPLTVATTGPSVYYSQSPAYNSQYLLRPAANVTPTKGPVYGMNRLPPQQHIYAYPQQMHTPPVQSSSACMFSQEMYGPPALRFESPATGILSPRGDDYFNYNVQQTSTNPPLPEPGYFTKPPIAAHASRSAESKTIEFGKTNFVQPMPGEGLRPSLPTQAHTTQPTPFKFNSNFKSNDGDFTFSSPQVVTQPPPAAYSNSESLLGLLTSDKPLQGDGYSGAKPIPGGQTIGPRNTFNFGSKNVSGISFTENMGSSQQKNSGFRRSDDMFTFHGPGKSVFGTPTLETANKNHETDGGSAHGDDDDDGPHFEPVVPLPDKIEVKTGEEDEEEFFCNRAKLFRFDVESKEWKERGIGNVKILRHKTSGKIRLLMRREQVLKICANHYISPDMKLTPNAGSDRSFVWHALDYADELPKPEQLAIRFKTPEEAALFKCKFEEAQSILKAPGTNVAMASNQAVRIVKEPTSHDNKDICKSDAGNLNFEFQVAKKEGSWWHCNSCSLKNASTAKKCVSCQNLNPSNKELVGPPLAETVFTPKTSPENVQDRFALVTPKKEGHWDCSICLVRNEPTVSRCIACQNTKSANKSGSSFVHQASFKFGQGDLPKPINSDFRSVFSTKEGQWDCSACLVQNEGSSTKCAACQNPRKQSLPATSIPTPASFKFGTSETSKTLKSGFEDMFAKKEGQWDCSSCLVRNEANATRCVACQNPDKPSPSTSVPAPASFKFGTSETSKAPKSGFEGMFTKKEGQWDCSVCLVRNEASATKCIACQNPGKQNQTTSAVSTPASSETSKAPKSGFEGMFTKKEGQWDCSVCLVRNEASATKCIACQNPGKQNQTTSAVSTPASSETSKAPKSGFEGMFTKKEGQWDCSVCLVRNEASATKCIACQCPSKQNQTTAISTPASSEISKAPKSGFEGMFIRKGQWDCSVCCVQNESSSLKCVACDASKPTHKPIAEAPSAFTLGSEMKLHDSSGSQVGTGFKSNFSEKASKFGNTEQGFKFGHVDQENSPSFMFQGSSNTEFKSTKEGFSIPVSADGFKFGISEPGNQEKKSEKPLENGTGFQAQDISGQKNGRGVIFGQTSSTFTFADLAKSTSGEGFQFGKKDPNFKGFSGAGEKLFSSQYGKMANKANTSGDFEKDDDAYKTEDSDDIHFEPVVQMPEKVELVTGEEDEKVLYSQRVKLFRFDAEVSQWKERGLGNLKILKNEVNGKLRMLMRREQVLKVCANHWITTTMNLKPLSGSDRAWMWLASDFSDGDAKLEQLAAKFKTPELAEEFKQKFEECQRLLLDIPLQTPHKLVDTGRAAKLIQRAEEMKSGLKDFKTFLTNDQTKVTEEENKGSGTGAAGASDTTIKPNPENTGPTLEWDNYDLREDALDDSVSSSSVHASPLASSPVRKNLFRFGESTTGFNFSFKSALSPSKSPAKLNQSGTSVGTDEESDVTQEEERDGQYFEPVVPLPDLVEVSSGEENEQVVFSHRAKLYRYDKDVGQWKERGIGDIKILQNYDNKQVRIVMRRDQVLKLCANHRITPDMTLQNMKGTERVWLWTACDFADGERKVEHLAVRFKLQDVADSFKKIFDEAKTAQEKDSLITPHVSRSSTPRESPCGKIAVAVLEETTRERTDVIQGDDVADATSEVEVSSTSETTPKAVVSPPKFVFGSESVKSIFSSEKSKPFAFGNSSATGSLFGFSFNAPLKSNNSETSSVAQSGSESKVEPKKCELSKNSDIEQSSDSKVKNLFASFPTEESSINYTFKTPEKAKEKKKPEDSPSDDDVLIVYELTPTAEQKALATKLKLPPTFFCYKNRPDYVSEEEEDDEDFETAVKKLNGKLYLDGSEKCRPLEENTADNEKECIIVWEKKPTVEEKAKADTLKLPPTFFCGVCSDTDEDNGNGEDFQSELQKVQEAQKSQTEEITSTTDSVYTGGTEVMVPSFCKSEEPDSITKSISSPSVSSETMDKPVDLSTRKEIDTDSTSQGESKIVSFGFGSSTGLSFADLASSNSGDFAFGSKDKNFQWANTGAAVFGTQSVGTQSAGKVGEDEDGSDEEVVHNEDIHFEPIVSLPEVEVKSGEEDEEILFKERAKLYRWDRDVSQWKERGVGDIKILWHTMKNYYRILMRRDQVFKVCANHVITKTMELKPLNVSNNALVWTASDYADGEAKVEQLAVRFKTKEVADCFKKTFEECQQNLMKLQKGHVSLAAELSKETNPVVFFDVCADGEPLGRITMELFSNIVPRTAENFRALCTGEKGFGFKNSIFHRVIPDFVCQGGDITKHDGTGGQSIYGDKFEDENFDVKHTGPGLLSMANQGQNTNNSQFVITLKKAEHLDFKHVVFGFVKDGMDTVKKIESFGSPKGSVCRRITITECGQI
UniProt P50402: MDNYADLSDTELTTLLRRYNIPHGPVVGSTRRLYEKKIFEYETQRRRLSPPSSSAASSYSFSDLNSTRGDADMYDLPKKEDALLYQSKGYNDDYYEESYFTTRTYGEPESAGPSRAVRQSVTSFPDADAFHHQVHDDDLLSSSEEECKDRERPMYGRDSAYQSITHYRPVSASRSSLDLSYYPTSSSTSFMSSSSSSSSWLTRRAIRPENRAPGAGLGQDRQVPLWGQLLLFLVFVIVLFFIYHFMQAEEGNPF
UniProt P53602: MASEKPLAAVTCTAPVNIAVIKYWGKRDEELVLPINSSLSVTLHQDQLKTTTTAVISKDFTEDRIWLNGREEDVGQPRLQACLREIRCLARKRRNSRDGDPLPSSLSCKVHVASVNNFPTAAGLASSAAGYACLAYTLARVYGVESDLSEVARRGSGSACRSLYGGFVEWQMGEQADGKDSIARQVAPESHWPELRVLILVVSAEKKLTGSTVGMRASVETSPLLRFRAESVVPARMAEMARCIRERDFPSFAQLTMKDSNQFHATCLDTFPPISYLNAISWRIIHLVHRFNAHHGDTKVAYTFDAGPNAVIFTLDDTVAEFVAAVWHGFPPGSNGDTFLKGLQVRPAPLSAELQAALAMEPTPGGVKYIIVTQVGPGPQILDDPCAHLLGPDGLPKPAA

Some of the results follow. Most values lie at the level of the controls, where differences are scatter.

Compound in this assay: Cc1nc(Nc2ncc(C(=O)Nc3c(C)cccc3Cl)s2)cc(N2CCN(CCO)CC2)n1 [dasatinib]
The assay can be described thus: log2 fold change of tryptic peptide abundance, ligand vs vehicle (limited proteolysis) (log2 ratio); higher = more trypsin-susceptible (destabilized). The conditions noted are these: ligand concentration: 5 uM; sample: K562 cleared lysate.
For “NEDD4 (peptide sequence: LLDGFFIRPFYK, peptide start residue: 1070) (UniProt P46934)”, the log2 fold change turned out to be 0.809.

With “UniProt P51787 (peptide sequence: GSAGLAK, peptide start residue: 26)”, the log2 fold change is -0.194.

For the target “MSH6 (peptide sequence: FPDLTVELNR, peptide start residue: 902) (UniProt P52701)”, the log2 fold change was -0.209.

As to “MARCKSL1 (peptide sequence: GEVPPKETPK, peptide start residue: 78) (UniProt P49006)”, the log2 fold change was found to be 0.143.

On to “NT5C2 (peptide sequence: HLDSSSNERPDISSIQR, peptide start residue: 405) (UniProt P49902)”, for which the log2 fold change amounted to 0.229.

Turning to “HSPA13 (peptide sequence: LGGQDFNQR, peptide start residue: 254) (UniProt P48723)”, the log2 fold change is 0.151.

In the case of “RABIF (peptide sequence: VLQPGTALFSR, peptide start residue: 30) (UniProt P47224)”, the log2 fold change is -0.187.

As to “IDH3A (peptide sequence: CREVAESCK, peptide start residue: 215) (UniProt P50213)”, the log2 fold change is -1.1.

As to “PMS1 (peptide sequence: LDELLQSQIEKR, peptide start residue: 678) (UniProt P54277)”, the log2 fold change is -0.201.

For “PIP4K2A (peptide sequence: DVEFLAQLK, peptide start residue: 262) (UniProt P48426)”, the log2 fold change is -2.99.

With “RGS19 (peptide sequence: FLSSPTYR, peptide start residue: 196) (UniProt P49795)”, the log2 fold change was found to be 0.145.

In the case of “CARS (peptide sequence: KQEQEAAKLAK, peptide start residue: 672) (UniProt P49589)”, the log2 fold change amounted to 0.871.

For the target “UniProt P51814 (peptide sequence: TGANSCEHDHYEK, peptide start residue: 280)”, the log2 fold change is -0.169.

Regarding “ARHGDIA (peptide sequence: YIQHTYR, peptide start residue: 128) (UniProt P52565)”, the log2 fold change was -0.298.

Regarding “HLCS (peptide sequence: RGSASGSEPAGDSDR, peptide start residue: 77) (UniProt P50747)”, the log2 fold change was 0.0963.

For “SERPINB9 (peptide sequence: ADLSAMSAER, peptide start residue: 298) (UniProt P50453)”, the log2 fold change amounted to 0.292.

Consider “FXR2 (peptide sequence: LRPVNPNPLATK, peptide start residue: 122) (UniProt P51116)”, for which the log2 fold change is -0.402.

Consider “CRKL (peptide sequence: SAWYMGPVSR, peptide start residue: 12) (UniProt P46109)”, for which the log2 fold change was found to be 0.146.

Regarding “USP14 (peptide sequence: FDDDKVSIVTPEDILR, peptide start residue: 450) (UniProt P54578)”, the log2 fold change was -0.156.

Turning to “RPL14 (peptide sequence: APAQKAPAPK, peptide start residue: 200) (UniProt P50914)”, the log2 fold change was -0.178.

On to “STAR (peptide sequence: LYEELVER, peptide start residue: 133) (UniProt P49675)”, for which the log2 fold change is -0.0848.

In the case of “NASP (peptide sequence: MAVLNEQVK, peptide start residue: 618) (UniProt P49321)”, the log2 fold change came to 0.0534.

On to “DAP (peptide sequence: GDKDFPPAAAQVAHQKPHASMDK, peptide start residue: 66) (UniProt P51397)”, for which the log2 fold change turned out to be 0.425.

In the case of “CTSC (peptide sequence: NVHGINFVSPVR, peptide start residue: 239) (UniProt P53634)”, the log2 fold change is -0.0429.

Take “UniProt P46734 (peptide sequence: DVKPSNVLINK, peptide start residue: 190)”: the log2 fold change was 0.0888.

As for “RANBP2 (peptide sequence: SGFEDMFAK, peptide start residue: 1534) (UniProt P49792)”, the log2 fold change turned out to be 0.134.

In the case of “UniProt P47813 (peptide sequence: MLGNGRLEAMCFDGVKR, peptide start residue: 41)”, the log2 fold change is -0.053.

Consider “NCBP2 (peptide sequence: SGGQVRDEYRQDYDAGR, peptide start residue: 130) (UniProt P52298)”, for which the log2 fold change was -0.338.

Consider “EMD (peptide sequence: YNIPHGPVVGSTR, peptide start residue: 19) (UniProt P50402)”, for which the log2 fold change was determined as 0.169.

“NUMB (peptide sequence: VSFCAPDRNFDR, peptide start residue: 114) (UniProt P49757)”: the log2 fold change was -0.17.

Consider “DHPS (peptide sequence: CTGMIILGGGVVK, peptide start residue: 275) (UniProt P49366)”, for which the log2 fold change was -0.186.

Regarding “RFX2 (peptide sequence: SSLYNHYLR, peptide start residue: 218) (UniProt P48378)”, the log2 fold change is -0.271.

As to “UniProt P52564 (peptide sequence: IRATVNSQEQK, peptide start residue: 95)”, the log2 fold change was -0.782.

In the case of “IREB2 (peptide sequence: GSCDSGELGR, peptide start residue: 176) (UniProt P48200)”, the log2 fold change was -0.112.

As to “GYG1 (peptide sequence: ERWEQGQADYMGADSFDNIKR, peptide start residue: 323) (UniProt P46976)”, the log2 fold change was 0.365.

For “DNM2 (peptide sequence: GMEELIPLVNK, peptide start residue: 5) (UniProt P50570)”, the log2 fold change was -0.0924.

In the case of “MVD (peptide sequence: IIHLVHR, peptide start residue: 284) (UniProt P53602)”, the log2 fold change is 0.385.
